Assay [1] concerns the target T1, RssB (residues 1–337), untagged (E. coli, UniProt P0AEV1 1-337).
T1 sequence (looked up): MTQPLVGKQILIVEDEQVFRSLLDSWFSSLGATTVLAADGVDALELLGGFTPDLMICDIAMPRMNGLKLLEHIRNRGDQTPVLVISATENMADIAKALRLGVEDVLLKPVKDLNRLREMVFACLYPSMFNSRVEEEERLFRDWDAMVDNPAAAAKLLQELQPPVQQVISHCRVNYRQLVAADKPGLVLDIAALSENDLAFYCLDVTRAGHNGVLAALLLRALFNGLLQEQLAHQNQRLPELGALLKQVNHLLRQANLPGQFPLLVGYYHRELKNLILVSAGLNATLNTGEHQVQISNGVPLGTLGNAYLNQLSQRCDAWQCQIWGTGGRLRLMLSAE
As to the kind of experiment: cross-linking; 0.005% (v/v) glutaraldehyde, 35 μg of each protein, 20 mM Hepes-KOH pH 7.5, 140 mM NaCl, 10 mM MgCl2, time course; SDS-PAGE and immunodecoration (anti-His, anti-RssB or anti-σS antisera); both purified.

Sequences of proteins named here, by UniProt entry; tags and fusion partners are left off. A change or cut given only in a name is not applied to a line headed by its entry.
UniProt P0A6H1: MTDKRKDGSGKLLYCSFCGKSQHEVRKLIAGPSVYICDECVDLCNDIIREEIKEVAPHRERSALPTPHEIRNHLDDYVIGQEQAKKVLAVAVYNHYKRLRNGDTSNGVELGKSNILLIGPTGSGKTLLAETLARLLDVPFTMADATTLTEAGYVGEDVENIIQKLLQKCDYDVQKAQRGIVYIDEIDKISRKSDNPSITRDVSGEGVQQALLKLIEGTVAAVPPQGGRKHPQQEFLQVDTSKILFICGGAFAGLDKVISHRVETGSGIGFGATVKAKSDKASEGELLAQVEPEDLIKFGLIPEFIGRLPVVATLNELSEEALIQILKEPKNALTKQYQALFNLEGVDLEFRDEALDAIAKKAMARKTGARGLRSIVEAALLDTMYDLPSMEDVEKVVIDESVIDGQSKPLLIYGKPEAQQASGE

Assay [2] addresses T2, RssBC (residues 131–337), untagged (E. coli) (UniProt P0AEV1).
T2 sequence: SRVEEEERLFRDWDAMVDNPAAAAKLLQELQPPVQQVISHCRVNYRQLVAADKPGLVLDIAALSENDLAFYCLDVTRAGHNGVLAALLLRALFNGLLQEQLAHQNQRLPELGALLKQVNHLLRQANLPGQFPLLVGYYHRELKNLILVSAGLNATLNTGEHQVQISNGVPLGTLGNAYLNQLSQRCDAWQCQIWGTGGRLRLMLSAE
Described as above.

Assay [3] deals with T3, RssBN (residues 1–128), untagged (E. coli) (UniProt P0AEV1).
T3 sequence: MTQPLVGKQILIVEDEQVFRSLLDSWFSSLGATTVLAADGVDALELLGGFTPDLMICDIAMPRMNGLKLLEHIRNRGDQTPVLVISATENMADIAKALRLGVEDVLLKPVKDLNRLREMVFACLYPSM
The description is as above.

Assay [4] deals with T4, RssB peptide library spot 109 (13-mer), putative RssBXBR motif (E. coli) (UniProt P0AEV1).
T4 sequence (peptide): GTGGRLRLMLSAE
The assay is described as follows: peptide or protein array; RssB 13-mer peptides (overlapping by 10) on cellulose membrane, panned with 2.5 μM ecClpXZBD in MP2 buffer pH 7.6, 100 mM KCl, 30 min, room temperature; bound protein transferred to PVDF, detected with anti-ClpX antisera; both purified.

Assay [5] deals with T5, RssB peptide library spot 20 (13-mer) (E. coli) (UniProt P0AEV1).
T5 sequence (peptide): DIAMPRMNGLKLL
The description is as above.

In assay [6] the target is T6, RssB peptide library spot 21 (13-mer) (E. coli) (UniProt P0AEV1).
T6 sequence (peptide): MPRMNGLKLLEHI
The assay is described as above.

The target in assay [7] is T7, RssB peptide library spot 22 (13-mer) (E. coli) (UniProt P0AEV1).
T7 sequence (peptide): MNGLKLLEHIRNR
Described as above.

Assay [8] deals with T8, RssB peptide library spot 23 (13-mer) (E. coli) (UniProt P0AEV1).
T8 sequence (peptide): LKLLEHIRNRGDQ
The description is as above.

The target of assay [9] is T9, RssB peptide library spot 81 (13-mer) (E. coli) (UniProt P0AEV1).
T9 sequence (peptide): LGALLKQVNHLLR
The assay is described as above.

Assay [10] has as its target T10, RssB peptide library spot 82 (13-mer) (E. coli) (UniProt P0AEV1).
T10 sequence (peptide): LLKQVNHLLRQAN
The description is as above.

For assay [11], the target named is T11, RssB peptide library spot 90 (13-mer) (E. coli) (UniProt P0AEV1).
T11 sequence (peptide): YHRELKNLILVSA
Described as above.

Assay [12] has as its target T12, RssB peptide library spot 91 (13-mer) (E. coli) (UniProt P0AEV1).
T12 sequence (peptide): ELKNLILVSAGLN
Described as above.

Results are given in words; binding and its absence hold for the method and conditions named. For part of these data: A result given as binding can be weak or reduced; the word gives no strength. For part of these data: Tags and fused reporters may be left off the sequences shown.

“His6-tagged zinc binding domain (ZBD) of E. coli ClpX (from UniProt P0A6H1) (domain or fragment)”: the binding result is “binds” in assay [1]; “binds” in assay [2]; “no binding” in [3]; “no binding (tested: 2.5 μM)” in [4]; “binds” in [5]; “binds” in [6]. The binding entry in [7], in assay [8], in [9], in assay [10], in assay [11] and in assay [12] was “binds” in each case.

Source of the values: PMC7226468, “Insight into the RssB-Mediated Recognition and Delivery of σ^s to the AAA+ Protease, ClpXP” (Biomolecules, 2020).
